According to publication PMC5814325:
These are yes or no findings as the source states them, for the method shown. In cells and extracts the contact can be indirect. For part of these data: Binding can be weak; no strength is given. For part of these data: Where a sequence is shown, tags or fusion partners need not be part of it.

Protein sequences, listed by entry. Tags and fused reporters are not part of them. Lines headed by an entry give the natural chain unless they say otherwise; changes in a name come on top.
UniProt P98172: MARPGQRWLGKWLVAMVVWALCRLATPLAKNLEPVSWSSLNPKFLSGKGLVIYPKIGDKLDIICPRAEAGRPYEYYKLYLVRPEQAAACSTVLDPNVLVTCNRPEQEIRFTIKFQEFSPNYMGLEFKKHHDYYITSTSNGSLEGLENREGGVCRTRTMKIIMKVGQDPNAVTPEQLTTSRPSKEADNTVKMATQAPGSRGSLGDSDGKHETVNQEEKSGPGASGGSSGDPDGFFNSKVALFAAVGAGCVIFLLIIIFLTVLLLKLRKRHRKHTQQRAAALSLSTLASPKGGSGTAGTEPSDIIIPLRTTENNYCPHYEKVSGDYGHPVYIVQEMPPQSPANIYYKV
UniProt P61586: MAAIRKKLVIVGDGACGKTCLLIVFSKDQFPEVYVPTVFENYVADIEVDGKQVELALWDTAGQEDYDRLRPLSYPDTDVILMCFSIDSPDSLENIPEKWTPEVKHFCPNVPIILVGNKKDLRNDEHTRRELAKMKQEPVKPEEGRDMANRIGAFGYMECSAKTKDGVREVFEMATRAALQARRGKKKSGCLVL

T1: Flag-tagged RhoGDI1 (wild type) (human) (UniProt P52565)
T1 sequence: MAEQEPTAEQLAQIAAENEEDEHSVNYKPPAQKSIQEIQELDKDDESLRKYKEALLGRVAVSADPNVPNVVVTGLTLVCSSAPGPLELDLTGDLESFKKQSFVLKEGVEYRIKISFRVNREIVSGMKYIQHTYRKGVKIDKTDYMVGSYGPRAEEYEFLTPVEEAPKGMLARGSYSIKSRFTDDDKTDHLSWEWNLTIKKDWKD

T2: Flag-tagged RhoGDI1 G173V (human) (UniProt P52565)
T2 sequence: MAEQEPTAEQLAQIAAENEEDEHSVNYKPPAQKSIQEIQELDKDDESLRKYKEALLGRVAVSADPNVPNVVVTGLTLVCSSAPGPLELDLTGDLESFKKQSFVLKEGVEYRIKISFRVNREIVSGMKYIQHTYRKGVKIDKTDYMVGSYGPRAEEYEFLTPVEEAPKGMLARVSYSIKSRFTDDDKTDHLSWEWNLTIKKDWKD


Key:
[1] = target: T1, Flag-tagged RhoGDI1 (wild type) (human); test: co-IP; HEK293T cells co-transfected; lysis buffer 20 mM Tris-HCl pH 8, 137 mM NaCl, 2 mM EDTA, 1% NP-40; IP with HA or Flag antibodies at 4 °C overnight, protein A/G-agarose; immunoblot
[2] = target: T2, Flag-tagged RhoGDI1 G173V (human); test: as above
[3] = target: ephrinB1 Y6F mutant (six conserved tyrosines changed to phenylalanine) (UniProt P98172); test: co-IP; HeLa cells expressing ephrinB1 constructs (with Flag-RhoGDI1 or with endogenous RhoGDI1), serum-starved, treated with 2.5 μg/ml control Fc or EphB2-Fc for 30 min; IP of ephrinB1 (HA antibody) and immunoblot

binding [1]	binding [2]	binding [3]	Molecule
binds	no binding		RhoA (endogenous, HEK293T) (from UniProt P61586)
		binds	endogenous RhoGDI1 (HeLa) (protein, UniProt P52565 1-204) MAEQEPTAEQLAQIAAENEEDEHSVNYKPPAQKSIQEIQELDKDDESLRKYKEALLGRVAVSADPNVPNVVVTGLTLVCSSAPGPLELDLTGDLESFKKQSFVLKEGVEYRIKISFRVNREIVSGMKYIQHTYRKGVKIDKTDYMVGSYGPRAEEYEFLTPVEEAPKGMLARGSYSIKSRFTDDDKTDHLSWEWNLTIKKDWKD
